Laboratory results published in patent publication US8048825B2, “Haloalkylsulfonanilide derivatives or salt thereof, herbicide comprising the derivatives as active ingredient, and use of the herbicide” (Nihon Nohyaku Co., Ltd., priority 2006, dated 2011).
At least one read-out could not be matched to a standard name with certainty. Some compounds share one range, which may span the group rather than tell each member.

Assays:
[1] = tested on: Echinochloa crus-galli; assay: Herbicidal effect on paddy field weeds of post-emergence stage (Post), Test Example 2; assay type: in vivo; details: one-leaf stage, 1000 g/ha as active ingredient, examined after 21 days
Text: (§1) Criteria for herbicidal efficacy (growth inhibiting degree) and phytotoxicity. • 5 . . . 100% herbicidal effect, phytotoxicity. • 4 . . . 90%-99% herbicidal effect, phytotoxicity. • 3 . . . 70%-89% herbicidal effect, phytotoxicity. • 2 . . . 40%-69% herbicidal effect, phytotoxicity. • 1 . . . 1%-39% herbicidal effect, phytotoxicity. • 0 . . . 0% herbicidal effect, phytotoxicity.
(§2) 75 cm^2 plastic pots were filled with the soil (clay loam). Seeds of Scirpus juncoides and Echinochloa crus-galli, paddy weeds, were planted, and they were covered with 75 cm^3 of soil mixed with seeds of Lindernia procumbens and then filled with water depth of 5 cm and they were brought up in a greenhouse. When the test plants were at one-leaf stage, predetermined effective dosage (1000 g/ha as an active ingredient) of formulations comprising a compound of the present invention as an active ingredient was applied to the pot water. Then, they were brought up in a greenhouse and the herbicidal efficacy was examined after 21 days from the treatment by comparing with the result of an untreated group according to the criteria of Test Example 1. In the table, “-” means that the test was not performed.

[2] = tested on: Lindernia procumbens; assay: as above; assay type: in vivo; details: one-leaf stage, 1000 g/ha as active ingredient, examined after 21 days
Text: as §1, §2

Compound | Echinochloa crus-galli post (herbicidal effect) [1] | Lindernia procumbens post (herbicidal effect) [2]
O=C1OCCCN1Cc1ccccc1NS(=O)(=O)C(F)(F)F [Compound No. 1-1, 3-[2-(trifluoromethanesulfonylamino)benzyl]-[1,3]-oxazinan-2-one] | 4 (90%-99% herbicidal effect, phytotoxicity) | 4 (90%-99% herbicidal effect, phytotoxicity)
CCCOC(=O)N(c1ccccc1CN1CCCOC1=O)S(=O)(=O)C(F)(F)F [Compound No. 1-4, 3-{2-[N-(propoxycarbonyl)-N -(trifluoromethanesulfonyl)amino]benzyl)-[1,3]-oxazinan-2-one] | 4 (90%-99% herbicidal effect, phytotoxicity) | 4 (90%-99% herbicidal effect, phytotoxicity)
CC1(C)COC(=S)N(Cc2ccccc2NS(=O)(=O)C(F)(F)F)C1 [Compound No. 1-34, 5,5-dimethyl-3-[2-(trifluoromethanesulfonylamino)benzyl]-[1,3]-oxazinan-2-thione] | 4 (90%-99% herbicidal effect, phytotoxicity) | 4 (90%-99% herbicidal effect, phytotoxicity)
COC(=O)N(c1ccccc1CN1CC(C)(C)COC1=S)S(=O)(=O)C(F)(F)F [Compound No. 1-35, 5,5-dimethyl-3-(2-[N-(methoxycarbonyl)-N-(trifluoromethanesulfonyl)amino]benzyl)-[1,3]-oxazinane-2-thione] | 4 (90%-99% herbicidal effect, phytotoxicity) | 4 (90%-99% herbicidal effect, phytotoxicity)
O=C1OC(c2ccccc2)CCN1Cc1ccccc1NS(=O)(=O)C(F)(F)F (stereo not shown) [Compound No. 1-239, 6-phenyl-3-[2-(trifluoromethanesulfonylamino)benzyl]-[1,3]-oxazinan-2-one] | 4 (90%-99% herbicidal effect, phytotoxicity) | 5 (100% herbicidal effect, phytotoxicity)
CCOCN(c1ccccc1CN1CCC(c2ccccc2)OC1=O)S(=O)(=O)C(F)(F)F (stereo not shown) [Compound No. 1-248, 6-phenyl-3-{2-[N-(ethoxymethyl)-N-(trifluoromethanesulfonyl)amino]benzyl)-[1,3]-oxazinan-2-one] | 4 (90%-99% herbicidal effect, phytotoxicity) | 5 (100% herbicidal effect, phytotoxicity)
CC1CCN(Cc2ccccc2NS(=O)(=O)C(F)(F)F)C(=O)OC1 (stereo not shown) [Compound No. 2-23, 6-methyl-3-[2-(trifluoromethanesulfonylamino)benzyl]-[1,3]-oxazepan-2-one] | 4 (90%-99% herbicidal effect, phytotoxicity) | 4 (90%-99% herbicidal effect, phytotoxicity)
CC(C)COC(=O)N(c1ccccc1CN1CCC(C)COC1=O)S(=O)(=O)C(F)(F)F (stereo not shown) [Compound No. 2-28, 3-(2-[N-(isobutoxycarbonyl)-N-(trifluoromethanesulfonyl)amino]benzyl)-6-methyl-[1,3]-oxazepan-2-one] | 4 (90%-99% herbicidal effect, phytotoxicity) | 4 (90%-99% herbicidal effect, phytotoxicity)
